According to paper PMC10721154:
These are yes or no findings as the source states them, for the method shown. Binding seen in cells or lysates may run through a third protein. Here binding means that the protein was enriched with, or labelled near, the bait; the list need not be complete.

Sequences of proteins named here, by UniProt entry; tags and fusion partners are left off. Residues count along the entry.
UniProt P35573: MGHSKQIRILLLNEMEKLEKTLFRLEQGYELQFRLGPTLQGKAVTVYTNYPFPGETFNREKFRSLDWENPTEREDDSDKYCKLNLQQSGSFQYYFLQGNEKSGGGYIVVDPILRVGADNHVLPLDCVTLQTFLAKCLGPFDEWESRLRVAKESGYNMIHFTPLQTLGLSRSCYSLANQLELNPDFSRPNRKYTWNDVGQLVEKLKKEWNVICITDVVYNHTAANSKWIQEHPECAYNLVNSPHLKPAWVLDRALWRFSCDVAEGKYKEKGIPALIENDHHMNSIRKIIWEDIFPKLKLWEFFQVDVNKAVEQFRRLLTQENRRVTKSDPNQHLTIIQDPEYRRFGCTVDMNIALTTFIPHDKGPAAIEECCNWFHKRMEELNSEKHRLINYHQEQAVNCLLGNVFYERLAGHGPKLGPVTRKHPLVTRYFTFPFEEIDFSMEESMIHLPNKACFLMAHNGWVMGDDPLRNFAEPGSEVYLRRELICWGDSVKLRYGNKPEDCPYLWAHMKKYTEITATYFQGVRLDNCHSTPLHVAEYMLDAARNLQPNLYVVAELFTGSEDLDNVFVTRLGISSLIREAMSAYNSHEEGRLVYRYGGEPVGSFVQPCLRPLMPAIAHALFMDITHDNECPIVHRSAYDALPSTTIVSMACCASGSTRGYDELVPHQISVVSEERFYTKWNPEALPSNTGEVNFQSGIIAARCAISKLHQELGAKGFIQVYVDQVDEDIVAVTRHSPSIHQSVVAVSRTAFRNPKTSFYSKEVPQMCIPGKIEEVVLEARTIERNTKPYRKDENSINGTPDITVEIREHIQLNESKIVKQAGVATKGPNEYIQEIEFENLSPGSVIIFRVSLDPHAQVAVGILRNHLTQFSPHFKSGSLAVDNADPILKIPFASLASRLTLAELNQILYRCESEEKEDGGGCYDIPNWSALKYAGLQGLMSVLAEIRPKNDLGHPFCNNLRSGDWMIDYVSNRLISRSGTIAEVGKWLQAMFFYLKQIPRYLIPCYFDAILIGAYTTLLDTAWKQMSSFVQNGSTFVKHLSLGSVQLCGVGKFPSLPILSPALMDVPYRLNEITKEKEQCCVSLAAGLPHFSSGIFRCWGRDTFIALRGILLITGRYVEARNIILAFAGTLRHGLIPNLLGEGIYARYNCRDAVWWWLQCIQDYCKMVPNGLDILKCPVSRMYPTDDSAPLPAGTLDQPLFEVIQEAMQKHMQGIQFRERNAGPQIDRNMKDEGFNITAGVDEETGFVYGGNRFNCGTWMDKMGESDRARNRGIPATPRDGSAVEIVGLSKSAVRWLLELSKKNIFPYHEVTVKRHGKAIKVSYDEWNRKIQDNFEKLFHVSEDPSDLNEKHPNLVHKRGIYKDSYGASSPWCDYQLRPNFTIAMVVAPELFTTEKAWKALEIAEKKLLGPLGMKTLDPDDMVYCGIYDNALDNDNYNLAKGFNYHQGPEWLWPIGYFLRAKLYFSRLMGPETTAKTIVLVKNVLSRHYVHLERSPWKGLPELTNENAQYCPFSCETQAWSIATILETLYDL
UniProt P35869, residues 11-848: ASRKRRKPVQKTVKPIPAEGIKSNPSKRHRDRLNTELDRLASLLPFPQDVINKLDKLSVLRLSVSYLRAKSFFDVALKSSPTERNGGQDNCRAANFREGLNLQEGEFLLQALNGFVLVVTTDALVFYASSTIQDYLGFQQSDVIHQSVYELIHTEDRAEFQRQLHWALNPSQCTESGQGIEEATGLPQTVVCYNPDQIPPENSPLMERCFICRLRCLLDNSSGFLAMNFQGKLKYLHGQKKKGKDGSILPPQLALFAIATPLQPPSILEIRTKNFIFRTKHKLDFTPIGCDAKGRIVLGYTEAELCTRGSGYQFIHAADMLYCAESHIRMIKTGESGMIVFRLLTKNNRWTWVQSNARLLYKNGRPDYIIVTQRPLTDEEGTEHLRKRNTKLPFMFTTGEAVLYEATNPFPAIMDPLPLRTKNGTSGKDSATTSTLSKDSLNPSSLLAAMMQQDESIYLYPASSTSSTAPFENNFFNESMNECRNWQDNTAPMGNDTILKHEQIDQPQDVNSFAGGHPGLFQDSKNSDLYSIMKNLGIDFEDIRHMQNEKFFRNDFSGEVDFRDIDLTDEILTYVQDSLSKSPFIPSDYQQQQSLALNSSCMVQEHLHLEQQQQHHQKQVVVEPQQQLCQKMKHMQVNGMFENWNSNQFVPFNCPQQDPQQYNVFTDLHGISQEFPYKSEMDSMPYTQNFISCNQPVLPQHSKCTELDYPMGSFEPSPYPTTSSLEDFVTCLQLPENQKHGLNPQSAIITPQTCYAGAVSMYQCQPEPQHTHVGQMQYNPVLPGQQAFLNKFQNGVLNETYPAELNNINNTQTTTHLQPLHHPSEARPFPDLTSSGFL

T1: starch-binding domain containing protein 1 (STBD1) (human (endogenous in MCF-7, MCF-7/DDP, A549/5-Fu, HEK293T)) (UniProt O95210)
T1 sequence: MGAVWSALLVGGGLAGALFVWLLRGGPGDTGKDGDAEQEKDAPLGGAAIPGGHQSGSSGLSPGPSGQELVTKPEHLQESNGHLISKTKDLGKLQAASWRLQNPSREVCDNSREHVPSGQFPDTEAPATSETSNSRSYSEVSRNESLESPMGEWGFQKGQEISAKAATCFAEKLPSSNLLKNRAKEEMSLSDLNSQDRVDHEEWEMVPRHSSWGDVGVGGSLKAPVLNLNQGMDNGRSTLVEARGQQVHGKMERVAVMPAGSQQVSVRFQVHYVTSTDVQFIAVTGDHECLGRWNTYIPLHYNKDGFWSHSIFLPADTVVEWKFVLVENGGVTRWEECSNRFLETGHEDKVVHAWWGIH

T2: starch-binding domain containing protein 1 (STBD1) (human (endogenous in MCF-7, MCF-7/DDP, A549/5-Fu, HEK293T)), O95210
T2 chain: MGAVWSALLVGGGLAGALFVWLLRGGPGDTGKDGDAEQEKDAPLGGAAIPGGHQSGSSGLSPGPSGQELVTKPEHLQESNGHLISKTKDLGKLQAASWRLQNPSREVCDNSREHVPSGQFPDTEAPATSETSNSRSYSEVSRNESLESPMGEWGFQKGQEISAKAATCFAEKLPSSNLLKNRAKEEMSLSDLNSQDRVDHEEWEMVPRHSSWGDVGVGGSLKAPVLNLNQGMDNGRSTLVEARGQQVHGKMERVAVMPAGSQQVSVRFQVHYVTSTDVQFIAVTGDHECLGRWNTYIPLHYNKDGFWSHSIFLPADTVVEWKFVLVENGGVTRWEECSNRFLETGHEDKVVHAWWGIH


Molecular target: T1, starch-binding domain containing protein 1 (STBD1) (human (endogenous in MCF-7, MCF-7/DDP, A549/5-Fu, HEK293T))
Experiment: affinity purification with mass spectrometry; anti-STBD1 immunoprecipitate from lysates of MCF-7 or MCF-7/DDP cells treated with DDP for 24 hours; SDS-PAGE, in-gel trypsin digestion, nano-UPLC MS
Conditions: not given

Molecule | binding
debranching enzyme (from UniProt P35573 1-1532) | binds
protein phosphatase 1 catalytic subunit (PP1c) (human (endogenous in MCF-7, MCF-7/DDP)) (enzyme) | binds
PP1 regulatory subunit GL (protein, UniProt Q86XI6 1-285) MMAVDIEYRYNCMAPSLRQERFAFKISPKPSKPLRPCIQLSSKNEASGMVAPAVQEKKVKKRVSFADNQGLALTMVKVFSEFDDPLDMPFNITELLDNIVSLTTAESESFVLDFSQPSADYLDFRNRLQADHVCLENCVLKDKAIAGTVKVQNLAFEKTVKIRMTFDTWKSYTDFPCQYVKDTYAGSDRDTFSFDISLPEKIQSYERMEFAVYYECNGQTYWDSNRGKNYRIIRAELKSTQGMTKPHSGPDLGISFDQFGSPRCSYGLFPEWPSYLGYEKLGPYY | binds

Further lines, results first:

binding | Molecule
binds | glycogen synthase (GYS) (human (endogenous in MCF-7, MCF-7/DDP)) (enzyme)
binds | glycogen phosphorylase (GP) (human (endogenous in MCF-7, MCF-7/DDP)) (enzyme)
binds | aryl hydrocarbon receptor (AHR) (from UniProt P35869 11-848)
binds | PP1 regulatory subunit GM (protein, UniProt Q16821 1-1122) MEPSEVPSQISKDNFLEVPNLSDSLCEDEEVTFQPGFSPQPSRRGSDSSEDIYLDTPSSGTRRVSFADSFGFNLVSVKEFDCWELPSASTTFDLGTDIFHTEEYVLAPLFDLPSSKEDLMQQLQIQKAILESTESLLGSTSIKGIIRVLNVSFEKLVYVRMSLDDWQTHYDILAEYVPNSCDGETDQFSFKIVLVPPYQKDGSKVEFCIRYETSVGTFWSNNNGTNYTFICQKKEQEPEPVKPWKEVPNRQIKGCLKVKSSKEESSVTSEENNFENPKNTDTYIPTIICSHEDKEDLEASNRNVKDVNREHDEHNEKELELMINQHLIRTRSTASRDERNTFSTDPVNFPNKAEGLEKKQIHGEICTDLFQRSLSPSSSAESSVKGDFYCNEKYSSGDDCTHQPSEETTSNMGEIKPSLGDTSSDELVQLHTGSKEVLDDNANPAHGNGTVQIPCPSSDQLMAGNLNKKHEGGAKNIEVKDLGCLRRDFHSDTSACLKESTEEGSSKEDYYGNGKDDEEQRIYLGVNEKQRKNFQTILHDQERKMGNPKISVAGIGASNRDLATLLSEHTAIPTRAITADVSHSPRTNLSWEEAVLTPEHHHLTSEGSALGGITGQVCSSRTGNVLRNDYLFQVEEKSGGINSEDQDNSPQHKQSWNVLESQGKSRENKTNITEHIKGQTDCEDVWGKRDNTRSLKATTEELFTCQETVCCELSSLADHGITEKAEAGTAYIIKTTSESTPESMSAREKAIIAKLPQETARSDRPIEVKETAFDPHEGRNDDSHYTLCQRDTVGVIYDNDFEKESRLGICNVRVDEMEKEETMSMYNPRKTHDREKCGTGNITSVEESSWVITEYQKATSKLDLQLGMLPTDKTVFSENRDLRQVQELSKKTDSDAIVHSAFNSDTNRAPQNSSPFSKHHTEISVSTNEQAIAVENAVTTMASQPISTKSENICNSTREIQGIEKHPYPESKPEEVSRSSGIVTSGSRKERCIGQIFQTEEYSVEKSLGPMILINKPLENMEEARHENEGLVSSGQSLYTSGEKESDSSASTSLPVEESQAQGNESLFSKYTNSKIPYFLLFLIFLITVYHYDLMIGLTFYVLSLSWLSWEEGRQKESVKKK

Molecular target: T2, starch-binding domain containing …
Experiment: as above
Conditions: remark: other sources report otherwise

binding | Molecule
binds | PPP1R3 family member PPP1R3C (PTG), Q9UQK1 1-317 (protein) MSCTRMIQVLDPRPLTSSVMPVDVAMRLCLAHSPPVKSFLGPYDEFQRRHFVNKLKPLKSCLNIKHKAKSQNDWKCSHNQAKKRVVFADSKGLSLTAIHVFSDLPEEPAWDLQFDLLDLNDISSALKHHEEKNLILDFPQPSTDYLSFRSHFQKNFVCLENCSLQERTVTGTVKVKNVSFEKKVQIRITFDSWKNYTDVDCVYMKNVYGGTDSDTFSFAIDLPPVIPTEQKIEFCISYHANGQVFWDNNDGQNYRIVHVQWKPDGVQTQMAPQDCAFHQTSPKTELESTIFGSPRLASGLFPEWQSWGRMENLASYR
